Screen size: about 340,000 compounds; about 170 (0.05%) were called active. Inconclusive results, whose numbers are uncertain, are shown with a selection of clear calls. The call rests on the fitted dose curve; in most records, active means well fitted inhibition curve with a large enough effect in the signal ratio, with a control signal flat (not every such curve was filed as active); inconclusive means small, poorly fitted or top-dose-only effect, or effect the other way, or a change in a side signal; inactive means flat fitted curve, though single readings scatter; the % refers to the signal ratio. A potency beside an inconclusive call is a rough fit, not a confirmed value. Square brackets hold non-standard residues; d marks the D form. Peptide text beside a SMILES is read from it. NMeY = CN[C@@H](Cc1ccc(O)cc1)C(=O)O; NMeF = CN[C@@H](Cc1ccccc1)C(=O)O; 2Abz = Nc1ccccc1C(=O)O
Experiment: qHTS Assay to Find Inhibitors of Chronic Active B-Cell Receptor Signaling;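 on activity change, negative = inhibition: plate controls were basal doxycycline-induced cells for no effect and cells given 10 µM MG132 for full effect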
Conditions: ABC-DLBCL IkBa-CBG/CBR reporter, luminescence ratio (green luciferase fused to IkBa over red control in TMD8 lymphoma cells), 4 h; activity change, negative = inhibition: at 46.1 µM (top of the series) unless noted
Method in brief: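 Cell line TMD8 (human ABC DLBCL), stably expressing tet-inducible CBG68-IkBa fusion and CBR; IMDM/0.5% FBS; cpd up to 46 uM; dox induction, 4 h, 37C/5% CO2; dual luminescence; green/red ratio; MG132 control.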
With CCOc1cc(-c2noc(N)c2C(=O)OC)cc(OCC)c1OCC the activity change, negative = inhibition was inconclusive: -20.9%. With CCOC(=O)Cc1nnc(Nc2cccc(O)c2)c2ccccc12 the activity change, negative = inhibition was inconclusive: -14.1%. For COC(=O)C1=CN(C2CCCCC2)C=C(C(=O)OC)C1c1ccc2c(c1)OCO2, the “activity change, negative = inhibition” value was inactive: 12.4%. For COc1ccc(C(=O)NC(=S)NNC(=O)c2ccco2)cc1, the “activity change, negative = inhibition” value was inactive: 0.247%. For CC(C)C[C@@H]1NC(=O)[C@H](Cc2ccccc2)N(C)C(=O)[C@H](C)NC(=O)c2ccccc2NC(=O)[C@H](Cc2ccc(O)cc2)N(C)C1=O (cyclo([2Abz]A[NMeF]L[NMeY])), the activity change, negative = inhibition was inconclusive: -4.46%. In the case of c1ccc(CSc2nc3ncccn3n2)cc1, the activity change, negative = inhibition was inconclusive: 4.3%. For CCn1c2c(c(=N)c3c1CCC3)CCCC2, the activity change, negative = inhibition was inconclusive: -1.36%. With Cc1cc(C)c(S(=O)(=O)NCC(c2ccco2)N2CCN(c3ccccc3)CC2)c(C)c1 (configuration not stated) the “activity change, negative = inhibition” value was inactive: -13.2%. With CCOc1ccccc1C(=O)NCC(=O)N1CCN(Cc2ccc3c(c2)OCO3)CC1 the activity change, negative = inhibition was inconclusive: -16%. For C/C(=N\NC(=O)Cc1ccc(Cl)cc1)c1ccc(F)cc1, the “activity change, negative = inhibition” value was inactive: 4.15%. For Cc1[nH]n(-c2ccc([N+](=O)[O-])cc2)c(=O)c1C=NCCN1CCN(C(=O)c2ccccc2)CC1, the activity change, negative = inhibition was inconclusive: -18.1%. With COc1ccccc1OCc1cc(C(=O)N2CC3C[C@@H]4CC2C[C@H](C3)C4)no1 the Potency was inconclusive: 3.98 µM [rising, partial curve]. For COc1ccc(OCC2c3cc(OC)c(OC)cc3CCN2C(=O)C(C)C)cc1 (configuration not stated), the “activity change, negative = inhibition” value was inactive: 1.63%. In the case of O=C(NNC(=O)c1ccccc1Br)c1ccccc1Cl, the Potency was inconclusive: 22.4 µM [falling, single point]. In the case of CC(C)n1cc(/C=C/c2cc[n+](C)cc2)c2ccccc21, the activity change, negative = inhibition was inconclusive: -3.45%. In the case of COc1ccc(CN2C(=O)c3cccc4cccc(c34)C2=O)cc1, the “activity change, negative = inhibition” value was inactive: 1.02%. In the case of Cc1cc(C)n(-c2ccc(C(=O)Nc3nnc(C)s3)cc2)n1, the activity change, negative = inhibition was inconclusive: 15.2%. With Cc1cc(C(=O)N2CCCC(N3CCN(c4cccc(Cl)c4)CC3)C2)n(C)n1 (configuration not stated) the activity change, negative = inhibition was inconclusive: 0.819%. For COc1ccc(C)cc1N(C(=O)COc1cccc(F)c1)c1nc2ccccc2s1, the activity change, negative = inhibition was inconclusive: 15.7%. With O=C(CSc1nnc2sc3ccccc3n12)N1CCN(c2ccccc2)CC1 the activity change, negative = inhibition was inconclusive: -2.05%. For CCOc1cc(C(=O)N/N=C(\C)Cc2ccc(OC)cc2)cc(OCC)c1OCC, the Potency was inconclusive: 5.8 µM [falling, full curve]. With COC(=NC(C)C)NC(C)C the activity change, negative = inhibition was inconclusive: 4.44%. In the case of CCOC(=O)Cc1csc(NC(=O)c2cc(OC)cc(OC)c2)n1, the Potency was inconclusive: 8.2 µM [falling, partial curve]. In the case of COc1ccccc1NC(=O)Nc1ccc(-n2ccc(C(F)(F)F)n2)cc1, the activity change, negative = inhibition was inconclusive: 11%. In the case of COc1ccc(C(=O)Nc2nc3ccccc3s2)c(OC)c1, the activity change, negative = inhibition was inconclusive: 170%. With CC1=CN2C(=N)/C(=C/c3ccc(C)o3)C(=O)N=C2S1 the Potency was inconclusive: 16.4 µM [falling, partial curve]. With Cc1ccc(-c2nc(N)sc2CC(=O)OCC(=O)N2C(C)CCCC2C)cc1 (configuration not stated) the Potency was inconclusive: 4.11 µM [rising, partial curve, poor fit]. In the case of Cc1nn(-c2ccccc2)c(Cl)c1/C=N/NC(=O)CCNc1n[nH]c(=O)[nH]c1=O, the Potency was inconclusive: 35.5 µM [falling, single point]. In the case of COc1ccc(-n2nc(C(=O)NCC(=O)NCCCN3CCOCC3)c3ccccc3c2=O)c(OC)c1, the activity change, negative = inhibition was inconclusive: 17.2%. For CCCC1C2CN(C(C)C)CC=C2C(C#N)=C(N)C1(C#N)C#N (configuration not stated), the “activity change, negative = inhibition” value was inactive: 2.55%. For CCOc1ccc(NC(=O)CSc2nc3cccnc3n2CC)cc1, the activity change, negative = inhibition was inconclusive: -6.17%. For O=C(CCNC(=O)c1ccc(Br)cc1)Nc1cc(Cl)ccc1-n1cncn1, the activity change, negative = inhibition was inconclusive: -6.89%. In the case of CC(C)n1c(O)c(N=Nc2ccccn2)c2ccccc21, the activity change, negative = inhibition was inconclusive: 4.33%. For Cc1ccc(Cl)cc1N1CCN(C(=O)C(C)n2ncn3cccc3c2=O)CC1 (configuration not stated), the Potency was inconclusive: 35.5 µM [falling, single point]. With Cc1nc2cc(C(=O)NCc3ccc4c(c3)OCO4)ccc2n1-c1ccc(Br)cc1 the activity change, negative = inhibition was inconclusive: -13%. In the case of O=C1CCc2cc(NS(=O)(=O)c3ccc(F)cc3)cc3c2N1CCC3, the activity change, negative = inhibition was inconclusive: 3.43%. With Nc1ccccc1NC(=O)NC(=O)c1ccccc1 the Potency was inconclusive: 22.4 µM [falling, single point]. For CCCn1nnc(NC(=O)c2ccccc2Cl)n1, the activity change, negative = inhibition was inconclusive: -17.6%. With Cc1cccc(C(=O)NNC(=O)c2ccc(Cl)cc2)c1O the Potency was inconclusive: 6.51 µM [falling, single point]. With CCn1c(SCC(=O)Nc2ccc(C)cc2)nc2sc3c(c2c1=O)CCN(C)C3 the Potency was inconclusive: 20 µM [falling, single point]. With O=C(CSc1ccccn1)Nc1ccc(N2CCOCC2)cc1 the activity change, negative = inhibition was inconclusive: 6.11%. In the case of O=C(N/N=C/c1sc(N2CCCCC2)nc1-c1cccs1)C1CC1, the activity change, negative = inhibition was inconclusive: 0.635%. In the case of CC(=O)c1cccc(NS(=O)(=O)c2ccc(C(=O)Nc3ccccc3)cc2)c1, the activity change, negative = inhibition was inconclusive: 3.45%. With CCCOP(=O)(c1ccc(N(C)C)cc1)C(O)c1ccncc1 (configuration not stated) the activity change, negative = inhibition was inconclusive: 7.88%. With CCOC(=O)C1C(=O)CC(=O)CC1CC(C)SCC (configuration not stated) the activity change, negative = inhibition was inconclusive: 7.88%. For CC(C)C1COC(c2cccn2Cc2ccccc2Cl)=N1 (configuration not stated), the “activity change, negative = inhibition” value was inactive: -2.94%. In the case of CNC(=O)CSc1nc2cc(S(=O)(=O)Nc3ccccc3OC)ccc2o1, the activity change, negative = inhibition was inconclusive: -3.2%. In the case of C(=N/Nc1nccs1)/c1cccnc1, the activity change, negative = inhibition was inconclusive: 4.07%. With CC1(C)OC(=O)C(=CNc2ccccn2)C(=O)O1 the “activity change, negative = inhibition” value was inactive: 0.241%. In the case of O=C(c1ccc(COc2ccc(F)cc2)o1)n1cccn1, the Potency was inconclusive: 11.2 µM [falling, partial curve]. In the case of COc1ccc(N(C(=O)c2snc(C(N)=O)c2N)C(C(=O)NCc2ccccc2)c2ccc(O)cc2)cc1 (configuration not stated), the “activity change, negative = inhibition” value was inactive: -8.89%. In the case of CCCn1c2c(c(O)c(C(=O)NCc3ccccc3)c1=O)CCCC2, the Potency was inconclusive: 12.6 µM [rising, partial curve, poor fit].
Potency means the concentration at half of the fitted maximal effect.
